# Library screen at single concentrations

The values are deposited in ChEMBL (CHEMBL3988442, “University of Dundee, Small-Polar-MMV Screening Library” (2021)).

Each number is a percent effect as filed. How 0% and 100% were set is not recorded. Most values in the screen are low, and negative values occur. The compounds are a random part of those screened. Two or more numbers in one place are separate tests of the same structure; such repeats can differ widely.

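Whole-cell growth test on Mycobacterium tuberculosis, read after 4 days in a medium based on cholesterol and the lipid DPPC; the read-out is not stated. Tested at 50 µM. Higher reads as more growth inhibition (inferred: compounds with an IC50 in retests scored well above the rest). Of about 69,000 compounds tested this way, about 370 (0.54%) reached 50% or more in at least one test.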

structure | Percent Effect
CS(=O)(=O)NC1CCCN(C(=O)Nc2cccnc2)C1 (stereo not shown) | -4.914
CCN(CC)S(=O)(=O)N(C)Cc1ccc2c(c1)OCCO2 | -13.5
[H][C@@]12CN(S(=O)(=O)c3ccccc3)C[C@]1([H])OCC(=O)N2c1ccccc1 | -0.2593
Cn1ccnc1C1CCN(CCN2CCOCC2)CC1 | -9.709
O=C(NCCc1ccc(F)cc1)C1CN(C(=O)Cn2cncn2)C1 | -21.33
CCOC1Sc2nnc(C)n2N=C1c1ccc(Br)cc1 (stereo not shown) | 6.005
COCC1CC2(CCN(CC3CC3)CC2)CN1Cc1ccccn1.O=C(O)C(F)(F)F.O=C(O)C(F)(F)F (stereo not shown) | 9.519
CC(C)c1cc(N(C)Cc2cc(C3CC3)on2)n2nccc2n1 | 8.091
Cc1nc(-c2cc(C(=O)NC(C)(C(=O)O)C(C)C)co2)cs1 (stereo not shown) | 4.92
CCCc1nc(NCCCOC)c2c(n1)c(C)nn2CC | 5.859
CNC(=O)CNC(=O)c1ccc(-c2scnc2C)nc1 | 1.801 & 4.428
Cc1ccc2c(c1)c(C)cc(=O)n2CCC(=O)O | -21.94
CC(C)c1ncc2c(n1)CN(Cc1cccc(C#N)c1)CC2 | -5.299
NC(=O)C1CCN(C(=O)CCCc2nnc(-c3ccccc3)o2)CC1 | 6.196
NC(=O)c1ccc(C2CCCN2C(=O)CCn2nnc3ccccc32)s1 (stereo not shown) | 12.79
[H][C@@]12CS(=O)(=O)C[C@]1([H])N(C(=O)c1cc(C(C)C)on1)CCN2CCOC | -7.274
O=C(c1cccc(S(=O)(=O)NCCCn2cccn2)c1)N1CCOCC1 | -8.548 & -30.29
Cc1cc(C)cc(OCCC(=O)NC2CC(=O)N(C)C2)c1 (stereo not shown) | 9.501
N#Cc1ccc(CN(CC(N)=O)Cc2cccc(F)c2)cc1 | 1.869
Cc1cc(N2Cc3cnn(CCO)c3C2)nc(-c2ccccc2)n1 | 1.936
O=C(O)C(F)(F)F.[H][C@]12CCC[C@@]1(COCc1csc(C)n1)CN(Cc1nccs1)C2 | -13.17
CN(C(=O)C1CSCN1S(=O)(=O)c1ccc(F)cc1)C1CC1 (stereo not shown) | 5.581
Cc1cc(C(=O)NCc2cc(C)oc2C)no1 | 23.97
COCCN1CCN(Cc2coc(-c3ccccc3Cl)n2)CC1 | 14.28
O=C(Cn1cnc2cc3c(cc21)OCCCO3)NC1CCCC1 | 2.829
CCN(C(=O)COC)C(c1cccnc1)c1ccc2c(c1)CCO2 (stereo not shown) | -28.44
CCNC(=O)CCC(=O)NCC1(O)CCC(C(C)(C)C)CC1 (stereo not shown) | 13.29
Cc1ccc(-c2csc(N)c2C#N)c(C)c1 | 14.19
CSCc1nc(CCNC(=O)c2cnn(C(C)C)c2)cs1 | 9.262
O=C(O)C(F)(F)F.O=C(c1ccncc1)N1CCC2(CCCN(c3ncc(F)cn3)C2)C1 (stereo not shown) | -7.47
O=C(c1nc(N2CCCC2)ncc1Cl)N1CCN(Cc2ccsc2)CC1 | 37.26
Cc1ccc(N2CCN(C(=O)COc3ccccc3)CC2)nn1 | -9.532
c1cnn(CCNCc2ccc(N3CCCCC3)cc2)c1 | 8.281
CCc1cn[nH]c1C1CCN(C(=O)c2cc(C#N)c(=O)[nH]c2C)CC1 | -9.273
Cc1noc(C)c1CN1CCN(C(=O)CCn2cncn2)CC1 | 0.07569
COc1ccc(C2=CCN(C(=O)CN(C)CC(N)=O)CC2)cc1 | 0.7456
CCC(=O)NCCNC(=O)c1nn(C)c(C)c1Cl | 17.63
O=C(NCCc1csc(N2CCCC2)n1)N(C1CCCC1)C1CC1 | -31.01
Cc1cc(C)n(-c2cncc(NCCNC(=O)c3cccnc3)n2)n1 | -5.241
COc1ccc(C(=O)NCC(C)(O)CCc2ccccc2)cc1 (stereo not shown) | -11.54
COCc1cc(NCCCSc2nnc(C)s2)ncn1 | 5.872
COCc1cccc(CNC(=O)CN2CCCC2c2noc(C)n2)c1 (stereo not shown) | 8.788
CNc1ncc2c(n1)CN(c1cccc(OC)c1)C2=O | 0.7068
NS(=O)(=O)c1ccc(F)c(C(=O)NCCSc2ccccn2)c1 | 8.642
CC(C)c1nnc2n1CCN(C(=O)c1cc3cc(F)ccc3[nH]1)C2 | 5.907
CCOCC1CN(C(=O)c2cccn2C)Cc2cnn(CC3CC3)c21.O=C(O)C(F)(F)F (stereo not shown) | 9.564
O=C(O)C(F)(F)F.[H][C@@]12CN(C(=O)NC(C)C)C[C@]1([H])C(=O)N(Cc1csc(C)n1)C2 | -8.283
CN(C)C(=O)c1nnn(-c2ccc(Br)cc2)n1 | 21.68
Cc1cc(Cl)ccc1C(=O)N[C@H]1CN(S(C)(=O)=O)C[C@@H]1C1CC1 | -0.2055
CCCOc1ccc(CC2=NC(C)(CO)CO2)cc1 (stereo not shown) | -30.88
NC(=O)C1CCCN(c2ccc(CNC(=O)c3cc[nH]n3)cc2)C1 (stereo not shown) | -36.63
CC(=O)NCC1CCC2(CCN(c3ncc(C)cn3)CC2)O1 (stereo not shown) | 10.47
CCN(CC)c1ncc(CNC2CCc3nc(C)nn3C2)s1 (stereo not shown) | -23.23
CS(=O)(=O)NC1CCc2[nH]c(=O)ccc2C1 (stereo not shown) | -11.73
CCn1cc2c(n1)C(COCC1CC1)CN(c1ccc(C)nn1)C2 (stereo not shown) | 8.957
CCc1nc2n(n1)CC(NCc1nc(C)ccc1O)CC2 (stereo not shown) | -5.289
[H][C@@]12CCN(C(=O)c3ccnnc3)C[C@@]1([H])O[C@@H](c1nc(C)c(C)s1)C2 | 5.139 & -5.807
O=C(c1ccc[nH]1)N1CCc2nnc(Cn3cccc3)n2CC1 | -2.382
COc1cccc(OCC(=O)N2CCCSCC2CN2CCOCC2)c1 (stereo not shown) | -6.142
CCC1CCCN(S(=O)(=O)c2cnn(C)c2)C1 (stereo not shown) | -16.21
CC(C)CN1CCCC2(CCN(c3ccccn3)C2)C1.O=C(O)C(F)(F)F (stereo not shown) | -8.172
NC(=O)COc1ccc(CNCc2c(F)cccc2F)cc1 | 9.852
Cc1nc(CN2CCCC(N(C)Cc3cnc(C)s3)C2)no1 (stereo not shown) | 6.402

Repeated from the top, 6 entries:

With CS(=O)(=O)NC1CCCN(C(=O)Nc2cccnc2)C1 (stereo not shown) the screen gave -4.914%.
With CCN(CC)S(=O)(=O)N(C)Cc1ccc2c(c1)OCCO2 the screen gave -13.5%.
With [H][C@@]12CN(S(=O)(=O)c3ccccc3)C[C@]1([H])OCC(=O)N2c1ccccc1 the screen gave -0.2593%.
With Cn1ccnc1C1CCN(CCN2CCOCC2)CC1 the screen gave -9.709%.
With O=C(NCCc1ccc(F)cc1)C1CN(C(=O)Cn2cncn2)C1 the screen gave -21.33%.
With CCOC1Sc2nnc(C)n2N=C1c1ccc(Br)cc1 (stereo not shown) the screen gave 6.005%.